Results are given in words; binding and its absence hold for the method and conditions named. In cells and extracts the contact can be indirect. Some entries that bind do so weakly or less than the wild type. For some of these results: Sequences can lack the tags named with a protein.
B1: GFP-ANKFY1 (protein, UniProt Q9P2R3 1-1169)
chain: MAEEEVAKLEKHLMLLRQEYVKLQKKLAETEKRCALLAAQANKESSSESFISRLLAIVADLYEQEQYSDLKIKVGDRHISAHKFVLAARSDSWSLANLSSTKELDLSDANPEVTMTMLRWIYTDELEFREDDVFLTELMKLANRFQLQLLRERCEKGVMSLVNVRNCIRFYQTAEELNASTLMNYCAEIIASHWDDLRKEDFSSMSAQLLYKMIKSKTEYPLHKAIKVEREDVVFLYLIEMDSQLPGKLNEADHNGDLALDLALSRRLESIATTLVSHKADVDMVDKSGWSLLHKGIQRGDLFAATFLIKNGAFVNAATLGAQETPLHLVALYSSKKHSADVMSEMAQIAEALLQAGANPNMQDSKGRTPLHVSIMAGNEYVFSQLLQCKQLDLELKDHEGSTALWLAVQHITVSSDQSVNPFEDVPVVNGTSFDENSFAARLIQRGSHTDAPDTATGNCLLQRAAGAGNEAAALFLATNGAHVNHRNKWGETPLHTACRHGLANLTAELLQQGANPNLQTEEALPLPKEAASLTSLADSVHLQTPLHMAIAYNHPDVVSVILEQKANALHATNNLQIIPDFSLKDSRDQTVLGLALWTGMHTIAAQLLGSGAAINDTMSDGQTLLHMAIQRQDSKSALFLLEHQADINVRTQDGETALQLAIRNQLPLVVDAICTRGADMSVPDEKGNPPLWLALANNLEDIASTLVRHGCDATCWGPGPGGCLQTLLHRAIDENNEPTACFLIRSGCDVNSPRQPGANGEGEEEARDGQTPLHLAASWGLEETVQCLLEFGANVNAQDAEGRTPIHVAISSQHGVIIQLLVSHPDIHLNVRDRQGLTPFACAMTFKNNKSAEAILKRESGAAEQVDNKGRNFLHVAVQNSDIESVLFLISVHANVNSRVQDASKLTPLHLAVQAGSEIIVRNLLLAGAKVNELTKHRQTALHLAAQQDLPTICSVLLENGVDFAAVDENGNNALHLAVMHGRLNNIRVLLTECTVDAEAFNLRGQSPLHILGQYGKENAAAIFDLFLECMPGYPLDKPDADGSTVLLLAYMKGNANLCRAIVRSGARLGVNNNQGVNIFNYQVATKQLLFRLLDMLSKEPPWCDGSYCYECTARFGVTTRKHHCRHCGRLLCHKCSTKEIPIIKFDLNKPVRVCNICFDVLTLGGVS
B2: mCherry-ANKFY1 (protein, UniProt Q9P2R3 1-1169)
chain: B1 chain
B3: WIPI4 (expressed for the immunoprecipitations of Supplementary Fig. S7) (protein, UniProt Q9Y484 1-360)
chain: MTQQPLRGVTSLRFNQDQSCFCCAMETGVRIYNVEPLMEKGHLDHEQVGSMGLVEMLHRSNLLALVGGGSSPKFSEISVLIWDDAREGKDSKEKLVLEFTFTKPVLSVRMRHDKIVIVLKNRIYVYSFPDNPRKLFEFDTRDNPKGLCDLCPSLEKQLLVFPGHKCGSLQLVDLASTKPGTSSAPFTINAHQSDIACVSLNQPGTVVASASQKGTLIRLFDTQSKEKLVELRRGTDPATLYCINFSHDSSFLCASSDKGTVHIFALKDTRLNRRSALARVGKVGPMIGQYVDSQWSLASFTVPAESACICAFGRNTSKNVNSVIAICVDGTFHKYVFTPDGNCNREAFDVYLDICDDDDF
B4: ANKFY1 (expressed for the immunoprecipitations of Supplementary Fig. S7) (protein, UniProt Q9P2R3 1-1169)
chain: B1 chain

Tests used:
[1] = target: Flag-ATG2A (human) (UniProt Q2TAZ0); assay: co-IP; HEK293T co-expressing tagged ANKFY1 and Flag-ATG2A; lysates immunoprecipitated with anti-Flag antibody; with or without 200 nM Torin 1 for 3 h, or regular culture, amino acid starvation or glucose starvation for 6 h; lysis buffer 20 mM Tris-HCl pH 7.5, 150 mM NaCl, 0.5% NP-40, 1 mM EDTA
[2] = target: T1, ATG2A-C (1113–1938) (human) (UniProt Q2TAZ0); assay: co-IP; immunoprecipitation of ATG2A fragments (1113-1938 or 1-345) with WIPI4 or ANKFY1, with or without expression of the third protein (ANKFY1 or WIPI4)
T1 sequence: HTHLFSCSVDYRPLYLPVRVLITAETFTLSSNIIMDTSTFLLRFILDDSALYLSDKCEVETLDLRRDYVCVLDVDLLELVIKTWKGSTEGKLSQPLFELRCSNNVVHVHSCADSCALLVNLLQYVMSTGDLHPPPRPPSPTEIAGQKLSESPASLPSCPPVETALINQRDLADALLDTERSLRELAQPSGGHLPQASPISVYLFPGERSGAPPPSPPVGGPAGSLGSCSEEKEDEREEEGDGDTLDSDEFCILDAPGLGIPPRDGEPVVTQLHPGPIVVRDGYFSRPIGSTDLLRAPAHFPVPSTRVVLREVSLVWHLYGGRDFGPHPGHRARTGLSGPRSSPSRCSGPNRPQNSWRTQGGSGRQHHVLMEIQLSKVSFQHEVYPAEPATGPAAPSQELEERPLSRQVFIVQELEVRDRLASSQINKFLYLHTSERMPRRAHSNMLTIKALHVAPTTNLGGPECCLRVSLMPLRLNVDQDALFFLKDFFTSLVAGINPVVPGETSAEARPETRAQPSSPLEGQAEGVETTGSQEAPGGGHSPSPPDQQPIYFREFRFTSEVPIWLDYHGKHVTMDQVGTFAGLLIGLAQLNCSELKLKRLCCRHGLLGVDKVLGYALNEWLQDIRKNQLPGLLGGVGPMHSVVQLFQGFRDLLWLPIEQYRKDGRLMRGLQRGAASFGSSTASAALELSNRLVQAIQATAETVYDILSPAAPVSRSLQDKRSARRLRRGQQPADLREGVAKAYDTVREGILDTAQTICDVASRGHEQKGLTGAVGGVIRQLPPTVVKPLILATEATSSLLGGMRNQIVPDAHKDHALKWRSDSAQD

[3] = target: T2, ATG2A-N (1–345) (human) (UniProt Q2TAZ0); assay: as above
T2 sequence: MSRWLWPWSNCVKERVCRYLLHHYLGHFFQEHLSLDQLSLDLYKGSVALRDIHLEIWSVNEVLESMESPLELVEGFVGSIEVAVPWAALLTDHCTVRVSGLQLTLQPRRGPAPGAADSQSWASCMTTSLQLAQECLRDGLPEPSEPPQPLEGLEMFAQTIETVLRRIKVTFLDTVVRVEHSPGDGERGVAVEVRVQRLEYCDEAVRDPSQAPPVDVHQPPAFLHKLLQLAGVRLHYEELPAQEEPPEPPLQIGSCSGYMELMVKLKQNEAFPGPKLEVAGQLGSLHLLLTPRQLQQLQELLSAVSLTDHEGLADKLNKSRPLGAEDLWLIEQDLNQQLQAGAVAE

Binder | binding [1] | also measured
B1 | binds | –
B2 | binds | –
B3 | – | binding [2]: binds
B4 | – | binding [3]: binds
